The text below walks through data of publication doi:10.1101/112144.

The chains behind the UniProt entries cited, without tags or fusion partners.
UniProt O09106: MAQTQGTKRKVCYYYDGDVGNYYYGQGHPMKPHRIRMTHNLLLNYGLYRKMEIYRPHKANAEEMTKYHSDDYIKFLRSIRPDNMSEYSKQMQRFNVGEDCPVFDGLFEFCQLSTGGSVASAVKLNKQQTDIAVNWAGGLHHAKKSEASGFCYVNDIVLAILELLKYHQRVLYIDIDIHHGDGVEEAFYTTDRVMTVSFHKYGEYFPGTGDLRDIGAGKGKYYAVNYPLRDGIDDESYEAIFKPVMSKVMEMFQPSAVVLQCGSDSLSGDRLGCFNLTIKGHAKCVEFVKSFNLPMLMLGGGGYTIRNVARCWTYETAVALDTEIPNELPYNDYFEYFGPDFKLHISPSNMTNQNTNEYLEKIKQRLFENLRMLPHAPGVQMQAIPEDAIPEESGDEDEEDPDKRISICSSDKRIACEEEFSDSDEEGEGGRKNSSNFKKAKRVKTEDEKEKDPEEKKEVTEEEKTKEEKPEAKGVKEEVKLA

No constants are given. Whether binding was seen depends on the method and setting. In cells and extracts the contact can be indirect.

The target of this experiment is T1, Tbx1:3xHA (mouse) (UniProt P70323).
T1 sequence: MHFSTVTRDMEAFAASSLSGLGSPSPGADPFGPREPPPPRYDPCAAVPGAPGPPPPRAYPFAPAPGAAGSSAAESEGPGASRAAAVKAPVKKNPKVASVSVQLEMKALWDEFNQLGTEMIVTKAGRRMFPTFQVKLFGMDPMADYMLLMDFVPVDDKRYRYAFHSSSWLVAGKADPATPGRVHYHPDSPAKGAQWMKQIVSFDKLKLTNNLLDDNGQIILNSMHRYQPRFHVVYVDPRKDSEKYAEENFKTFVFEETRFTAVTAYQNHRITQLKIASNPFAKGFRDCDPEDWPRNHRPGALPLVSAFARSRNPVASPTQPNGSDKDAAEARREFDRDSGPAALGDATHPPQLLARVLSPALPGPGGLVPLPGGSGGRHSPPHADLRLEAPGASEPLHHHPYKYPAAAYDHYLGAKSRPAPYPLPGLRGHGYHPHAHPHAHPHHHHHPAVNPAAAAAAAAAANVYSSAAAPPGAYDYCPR
The experiment in a line: co-IP.

In the case of HDAC1 (from UniProt O09106 1-482), the binding entry is given as “no binding”.
